Assay results from publication PMC8722725.
No constants are given. Whether binding was seen depends on the method and setting. Binding seen in cells or lysates may run through a third protein. Some binding calls cover weakened binding; strength is not graded here. Tags and fused reporters may be left off the sequences shown.

Chains of the proteins cited; added tags and fusions are not shown.
UniProt Q13148: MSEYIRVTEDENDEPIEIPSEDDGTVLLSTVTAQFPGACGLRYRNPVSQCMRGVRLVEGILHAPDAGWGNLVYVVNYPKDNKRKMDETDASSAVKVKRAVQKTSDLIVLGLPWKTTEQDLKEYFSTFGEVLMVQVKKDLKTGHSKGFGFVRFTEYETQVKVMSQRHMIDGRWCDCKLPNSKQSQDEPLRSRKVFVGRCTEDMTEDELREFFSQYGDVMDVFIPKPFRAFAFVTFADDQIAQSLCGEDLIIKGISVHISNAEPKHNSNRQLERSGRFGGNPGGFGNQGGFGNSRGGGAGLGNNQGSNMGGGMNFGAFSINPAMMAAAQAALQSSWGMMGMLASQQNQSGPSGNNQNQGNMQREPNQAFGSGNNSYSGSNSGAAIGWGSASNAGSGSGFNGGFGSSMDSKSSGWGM

Target: mCherry-TDP-43 (UniProt Q13148)
Test: co-IP; RFP-Trap agarose beads on lysate of HeLa cells co-transfected with mCherry-TDP-43 and SIRT2-GFP variants; blot for TDP-43 and GFP

- binding: binds
B1: GFP-tagged SIRT2 (SIRT2-GFP), wild type (enzyme, UniProt Q8IXJ6 1-389)
chain: MAEPDPSHPLETQAGKVQEAQDSDSDSEGGAAGGEADMDFLRNLFSQTLSLGSQKERLLDELTLEGVARYMQSERCRRVICLVGAGISTSAGIPDFRSPSTGLYDNLEKYHLPYPEAIFEISYFKKHPEPFFALAKELYPGQFKPTICHYFMRLLKDKGLLLRCYTQNIDTLERIAGLEQEDLVEAHGTFYTSHCVSASCRHEYPLSWMKEKIFSEVTPKCEDCQSLVKPDIVFFGESLPARFFSCMQSDFLKVDLLLVMGTSLQVQPFASLISKAPLSTPRLLINKEKAGQSDPFLGMIMGLGGGMDFDSKKAYRDVAWLGECDQGCLALAELLGWKKELEDLVRREHASIDAQSGAGVPNPSTSASPKKSPPPAKDEARTTEREKPQ
